According to PubChem BioAssay AID328 (DTP/NCI, 2004):
The list shows only some results of the screen, not a fair sample: it is rich in T/C values a quarter to a half above the control, in often repeated tests (any T/C) and in doses without a T/C. Further doses and runs are listed elsewhere. T/C gives the treated animals as a percentage of the vehicle group. Some entries give survivors of the animals treated and no T/C: the source holds a T/C of zero for them, seemingly a mark for toxic or unscored doses. Some doses without a T/C left all or most animals alive at the check, yet need not have been tolerated: the source hardly ever lists a survival T/C far under the control, and the zero likely stands for such cases as well. Survivors were counted at the toxicity check, usually on the fifth day, unless a day is given; later deaths do not show. Schedule codes are those of the source, read here as Q, the interval in days (D) or hours (H), X, the number of doses. Where survival is the endpoint, this PubChem deposit counts one and a half times the control or more as active, and values a quarter to a half above the control carry no call in these data; other NCI protocols may use other cut-offs. Marks such as (2×) count equal records among those shown. Some entries hold several experiments; the values are given in rising order. Some T/C values carry the count of animals alive at the toxicity check (mostly the fifth day); without a count, all were alive then.

Tested on: BDF1 mice, P388 leukemia ip, median survival T/C
Test: NCI In Vivo Anticancer Drug Screen. Data for tumor model P388 Leukemia (intraperitoneal) in B6D2F1 (BDF1) mice
Settings: T/C endpoint: median survival time, higher T/C = longer survival
In short: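 Steps: implant the tumour, treat one group with compound and another with vehicle, record survival, then divide treated by control.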

[1] = dose: 64.0 mg/kg/injection, schedule: Q01DX010 (ip), vehicle: carboxymethylcellulose (CMC)
[2] = dose: 100.0 mg/kg/injection, schedule: Q01DX009 (ip), vehicle: saline
[3] = dose: 50.0 mg/kg/injection, schedule: Q01DX009 (ip), vehicle: Klucel (hydroxypropylcellulose) (HPC)
[4] = dose: 100.0 mg/kg/injection, schedule: Q01DX009 (ip), vehicle: Klucel (hydroxypropylcellulose) (HPC)
[5] = dose: 200.0 mg/kg/injection, schedule: Q01DX009 (ip), vehicle: saline
[6] = dose: 25.0 mg/kg/injection, schedule: Q01DX009 (ip), vehicle: saline with Tween-80
[7] = dose: 50.0 mg/kg/injection, schedule: Q01DX009 (ip), vehicle: saline with Tween-80
[8] = dose: 100.0 mg/kg/injection, schedule: Q01DX009 (ip), vehicle: saline with Tween-80
[9] = dose: 200.0 mg/kg/injection, schedule: Q01DX009 (ip), vehicle: saline with Tween-80

With `CCCCCCCCCCNCCS` the T/C [1] was 140 % of control, the survivor count [1] was 0 of 6 and the survivor count (dose: 128.0 mg/kg/injection, schedule: Q01DX010 (ip), vehicle: carboxymethylcellulose (CMC)) was 0 of 6. The survivor count (dose: 256.0 mg/kg/injection, schedule: Q01DX010 (ip), vehicle: carboxymethylcellulose (CMC)) was 0 of 6.

With `O=C1OC(=O)C2C3C=CC(C4C=CC43)C12` (centres undefined) the survivor count [2] was 6 of 6.

In the case of `C1=CC2(OCCO2)C2CC=CC3(OCCO3)C2C1` (centres undefined), the T/C [3] was 126 and 133 % of control, the T/C (dose: 75.0 mg/kg/injection, schedule: Q01DX009 (ip), vehicle: Klucel (hydroxypropylcellulose) (HPC)) was 145 % of control and the T/C [4] was 144 % of control.

For `Cc1cc(C)cc(CCc2cc(C)cc(C)c2)c1`, the survivor count [4] was 3 of 6.

In the case of `CCc1ccc(NC(=O)N(CCCl)N=O)cc1`, the T/C (dose: 1.25 mg/kg/injection, schedule: Q04DX003 (ip), vehicle: Klucel (hydroxypropylcellulose) (HPC)) was 136 % of control, the T/C (dose: 2.5 mg/kg/injection, schedule: Q04DX003 (ip), vehicle: Klucel (hydroxypropylcellulose) (HPC)) was 140 % of control and the T/C (dose: 17.0 mg/kg/injection, schedule: Q01DX009 (ip), vehicle: gum acacia) was 140 % of control. For the same compound, the survivor count (dose: 25.0 mg/kg/injection, schedule: Q01DX009 (ip), vehicle: gum acacia) was 6 of 6, the survivor count (dose: 37.0 mg/kg/injection, schedule: Q01DX009 (ip), vehicle: gum acacia) was 6 of 6 and the survivor count (dose: 50.0 mg/kg/injection, schedule: Q01DX009 (ip), vehicle: gum acacia) was 5 of 6. The survivor count (dose: 100.0 mg/kg/injection, schedule: Q01DX009 (ip), vehicle: gum acacia) was 4 of 6.

In the case of `COC1=CC=C2C3Cc4ccc(OC)c(O)c4C2(C1)CN3C` (centres undefined), the survivor count (dose: 12.5 mg/kg/injection, schedule: Q01DX009 (ip), vehicle: Klucel (hydroxypropylcellulose) (HPC)) was 6 of 6, the survivor count [3] was 4 of 6 and the survivor count [4] was 2 of 6.

For `COc1ccc2nc(Cl)c(C)c(C)c2c1`, the survivor count [2] was 5 of 6 and the survivor count [5] was 6 of 6.

`CO[C@H]1CC[C@@]2(C)C(=CC[C@H]3[C@@H]4C[C@H](O)C[C@@]4(C)CC[C@@H]32)C1` was tested, and the survivor count (dose: 50.0 mg/kg/injection, schedule: Q01DX010 (ip), vehicle: other) was 5 of 6.

`CN(C)c1ccc(/C=C/c2ccnc3ccc(I)cc23)cc1` was tested, and the survivor count [6] was 2 of 6, the survivor count [7] was 0 of 6 and the survivor count [8] was 5 of 6. The survivor count [9] was 4 of 6.

With `N=C(N)c1ccc(NC(=S)Nc2ccc(C(=N)N)cc2)cc1` the survivor count [7] was 2 of 6, the survivor count [8] was 0 of 6 and the survivor count [9] was 0 of 6.

In the case of `CCN(CC)CCNc1ccc(N=Nc2cnc3ccccc3c2)c2ccccc12`, the survivor count (dose: 170.0 mg/kg/injection, schedule: Q01DX009 (ip), vehicle: Klucel (hydroxypropylcellulose) (HPC)) was 6 of 6.

With `CC1([CH2][Hg][I])CS(=O)(=O)CC(C)([CH2][Hg][I])O1` (centres undefined) the survivor count (dose: 20.0 mg/kg/injection, schedule: Q01DX010 (ip), vehicle: carboxymethylcellulose (CMC)) was 5 of 6, the survivor count (dose: 40.0 mg/kg/injection, schedule: Q01DX010 (ip), vehicle: carboxymethylcellulose (CMC)) was 3 of 6 and the survivor count (dose: 80.0 mg/kg/injection, schedule: Q01DX010 (ip), vehicle: carboxymethylcellulose (CMC)) was 0 of 6.

In the case of `CCC[N+]12C(O)C(CC)C3CC1C1N(C)c4ccc(Br)cc4C14CC2C3C4O` (centres undefined), the survivor count [9] was 5 of 6.

With `CC[n+]1c(-c2ccccc2)c2cc(N)ccc2c2ccc(N)cc21` (tested in a mixture with another compound) the T/C (dose: 100.0 mg/kg/injection, schedule: Q01DX009 (ip), vehicle: other) was 135 % of control, the T/C (dose: 200.0 mg/kg/injection, schedule: Q01DX009 (ip), vehicle: other) was 126 % of control and the T/C (dose: 400.0 mg/kg/injection, schedule: Q01DX009 (ip), vehicle: other) was 135 % of control.

With `C/C(=N/N)c1ccc(Br)cc1` the survivor count (dose: 12.0 mg/kg/injection, schedule: Q01DX009 (ip), vehicle: saline with Tween-80) was 6 of 6, the survivor count [6] was 5 of 6 and the survivor count [7] was 0 of 6. The T/C (dose: 75.0 mg/kg/injection, schedule: Q04DX003 (ip), vehicle: saline with Tween-80) was 127 % of control (2×) and the survivor count [8] was 0 of 6.

For `CCOC(=O)C(C)[P+](c1ccccc1)(c1ccccc1)c1ccccc1` (centres undefined), the T/C (dose: 1.5 mg/kg/injection, schedule: Q01DX009 (ip), vehicle: saline) was 127 % of control and the survivor count (dose: 6.0 mg/kg/injection, schedule: Q01DX009 (ip), vehicle: saline) was 0 of 6.

With `COc1c(OC)c(OC)c2c(c1OC)c(=O)c1ccccc1n2C` the T/C (dose: 200.0 mg/kg/injection, schedule: Q01DX010 (ip), vehicle: carboxymethylcellulose (CMC)) was 145 % of control [5 of 6 alive].

`CC1CCC2CON(C(C)(C)C)C2C1` (centres undefined) was tested, and the T/C (dose: 100.0 mg/kg/injection, schedule: Q04DX003 (ip), vehicle: saline with Tween-80) was 125 % of control, the survivor count [9] was 1 of 6 and the survivor count (dose: 200.0 mg/kg/injection, schedule: Q04DX003 (ip), vehicle: saline with Tween-80) was 4 of 6. For the same compound, the survivor count (dose: 400.0 mg/kg/injection, schedule: Q04DX003 (ip), vehicle: saline with Tween-80) was 0 of 6.

For `CNC(=S)N/N=C(/C)CCC/C(C)=N/NC(=S)NC`, the survivor count [7] was 4 of 6 and the survivor count [8] was 3 of 6.

`CCCCCCC(N)C(C)=O` (centres undefined) was tested, and the survivor count [5] was 0 of 6.

For `Nc1cccc2c1C(=O)C=CC2=O`, the T/C (dose: 6.5 mg/kg/injection, schedule: Q04DX003 (ip), vehicle: saline) was 130 % of control and the survivor count (dose: 13.0 mg/kg/injection, schedule: Q04DX003 (ip), vehicle: saline) was 3 of 6.

`c1ccc(-c2nc3ccccc3nc2-c2ccc(-c3ccc(-c4nc5ccccc5nc4-c4ccccc4)cc3)cc2)cc1` was tested, and the survivor count [8] was 6 of 6.

For `CCCCCCCCCCCCCCCC(=O)N(C/C=C/CN(CCCN(C)C)C(=O)CCCCCCCCCCCCCCC)CCCN(C)C`, the survivor count [6] was 5 of 6, the survivor count [7] was 3 of 6 and the survivor count [8] was 0 of 6.

For `O=C(Nc1cccc(C2=NCCN2)c1)c1ccc(C(=O)Nc2cccc(C3=NCCN3)c2)c(Cl)c1`, the survivor count (dose: 8.0 mg/kg/injection, schedule: Q01DX010 (ip), vehicle: water) was 1 of 6.

For `CC(=O)OCc1ccc(Cl)cc1`, the T/C [9] was 137 % of control.

For `Clc1nnc(Cl)c(Cl)c1Cl`, the T/C (dose: 1.3 mg/kg/injection, schedule: Q04DX003 (ip), vehicle: Klucel (hydroxypropylcellulose) (HPC)) was 125 % of control, the survivor count (dose: 1.8 mg/kg/injection, schedule: Q01DX009 (ip), vehicle: saline) was 6 of 6 and the T/C (dose: 2.0 mg/kg/injection, schedule: Q04DX003 (ip), vehicle: Klucel (hydroxypropylcellulose) (HPC)) was 125 % of control. The survivor count (dose: 3.0 mg/kg/injection, schedule: Q04DX003 (ip), vehicle: Klucel (hydroxypropylcellulose) (HPC)) was 5 of 6 and the survivor count (dose: 4.2 mg/kg/injection, schedule: Q01DX009 (ip), vehicle: saline) was 0 of 6.

In the case of `CCOC(=O)c1c[nH]c(=O)c([N+](=O)[O-])c1O`, the survivor count [9] was 6 of 6 and the survivor count (dose: 400.0 mg/kg/injection, schedule: Q01DX009 (ip), vehicle: saline with Tween-80) was 6 of 6.

For `CN(C)c1ccc2cc3ccc(N(C)C)cc3nc2c1`, the survivor count (dose: 100.0 mg/kg/injection, schedule: Q04DX003 (ip), vehicle: water) was 0 of 4.

`COc1ccc(C=[N+](C)CCc2ccc(OC)c(OC)c2)cc1OC` was tested, and the survivor count (dose: 400.0 mg/kg/injection, schedule: Q01DX009 (ip), vehicle: saline) was 1 of 6.
